From article PMC9729291
These are yes or no findings as the source states them, for the method shown. In cells and extracts the contact can be indirect. A yes stands for co-enrichment or nearness to the bait. Other partners may have been found.

Chains of the proteins cited; added tags and fusions are not shown.
UniProt Q12834: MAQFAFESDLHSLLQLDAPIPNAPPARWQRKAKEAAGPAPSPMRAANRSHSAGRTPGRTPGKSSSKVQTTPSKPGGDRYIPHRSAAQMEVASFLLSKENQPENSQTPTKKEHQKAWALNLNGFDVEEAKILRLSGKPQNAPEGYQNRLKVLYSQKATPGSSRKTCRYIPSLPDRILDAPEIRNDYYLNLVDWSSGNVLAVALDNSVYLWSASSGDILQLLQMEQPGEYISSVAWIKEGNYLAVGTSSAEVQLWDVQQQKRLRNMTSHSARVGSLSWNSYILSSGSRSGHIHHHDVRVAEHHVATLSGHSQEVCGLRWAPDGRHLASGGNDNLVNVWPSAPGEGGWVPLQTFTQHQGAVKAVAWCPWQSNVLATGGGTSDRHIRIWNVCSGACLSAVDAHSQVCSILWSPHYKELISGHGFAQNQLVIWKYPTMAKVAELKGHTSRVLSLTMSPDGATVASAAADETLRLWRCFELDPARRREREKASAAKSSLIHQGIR
UniProt P63151: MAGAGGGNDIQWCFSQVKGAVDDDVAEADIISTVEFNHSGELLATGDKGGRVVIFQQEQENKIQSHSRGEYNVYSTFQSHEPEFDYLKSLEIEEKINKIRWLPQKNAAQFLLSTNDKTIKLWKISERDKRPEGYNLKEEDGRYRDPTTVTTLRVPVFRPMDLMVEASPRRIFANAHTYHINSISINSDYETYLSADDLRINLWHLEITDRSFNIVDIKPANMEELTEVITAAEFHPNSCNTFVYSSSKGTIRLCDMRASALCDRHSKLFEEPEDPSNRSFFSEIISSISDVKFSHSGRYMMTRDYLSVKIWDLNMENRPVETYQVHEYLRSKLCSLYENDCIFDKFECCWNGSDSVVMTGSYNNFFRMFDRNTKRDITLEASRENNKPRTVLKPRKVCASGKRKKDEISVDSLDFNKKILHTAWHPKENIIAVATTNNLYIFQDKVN

Target: T1, SLFN5 (Schlafen family member 5), endogenous (human (endogenous in U2OS and Jurkat E6.1)) (UniProt Q08AF3)
T1 sequence: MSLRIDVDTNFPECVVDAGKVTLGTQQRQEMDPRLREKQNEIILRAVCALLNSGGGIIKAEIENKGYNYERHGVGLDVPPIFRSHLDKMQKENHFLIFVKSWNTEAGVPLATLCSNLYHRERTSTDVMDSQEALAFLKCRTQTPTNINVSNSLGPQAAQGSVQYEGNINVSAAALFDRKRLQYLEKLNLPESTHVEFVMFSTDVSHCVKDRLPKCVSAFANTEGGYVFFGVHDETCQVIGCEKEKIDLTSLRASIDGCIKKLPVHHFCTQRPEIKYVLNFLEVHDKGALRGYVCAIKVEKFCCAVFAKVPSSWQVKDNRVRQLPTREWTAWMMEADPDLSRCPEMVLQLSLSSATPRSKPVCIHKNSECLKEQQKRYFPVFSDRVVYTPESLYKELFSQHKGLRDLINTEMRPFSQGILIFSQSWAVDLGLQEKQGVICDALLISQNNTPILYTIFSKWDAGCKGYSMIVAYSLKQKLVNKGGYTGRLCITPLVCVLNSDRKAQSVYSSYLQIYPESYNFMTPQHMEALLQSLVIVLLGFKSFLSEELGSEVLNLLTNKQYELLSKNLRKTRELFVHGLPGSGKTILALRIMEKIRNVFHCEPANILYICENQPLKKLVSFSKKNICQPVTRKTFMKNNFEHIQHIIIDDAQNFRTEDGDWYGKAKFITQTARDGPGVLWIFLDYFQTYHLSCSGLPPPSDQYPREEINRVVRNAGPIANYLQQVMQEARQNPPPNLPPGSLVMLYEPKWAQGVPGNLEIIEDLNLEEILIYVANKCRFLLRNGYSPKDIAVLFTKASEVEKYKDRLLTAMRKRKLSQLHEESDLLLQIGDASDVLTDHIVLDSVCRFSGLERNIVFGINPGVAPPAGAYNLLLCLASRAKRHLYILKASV
Experiment: affinity purification with mass spectrometry; endogenous SLFN5 precipitated from nuclear lysate with anti-SLFN5 #112/5/6 covalently coupled to resin, native conditions, 150 mM NaCl binding, 250 mM NaCl washes, 4 °C overnight; IgG control IP; three replicates, label-free quantification

Molecule | binding
APC/C activator protein CDC20, endogenous (from UniProt Q12834 1-499) | binds
serine/threonine-protein phosphatase 2A regulatory subunit B55α, endogenous (from UniProt P63151 1-447) | binds
serine/threonine-protein phosphatase 5, endogenous (protein, UniProt P53041 1-499) MAMAEGERTECAEPPRDEPPADGALKRAEELKTQANDYFKAKDYENAIKFYSQAIELNPSNAIYYGNRSLAYLRTECYGYALGDATRAIELDKKYIKGYYRRAASNMALGKFRAALRDYETVVKVKPHDKDAKMKYQECNKIVKQKAFERAIAGDEHKRSVVDSLDIESMTIEDEYSGPKLEDGKVTISFMKELMQWYKDQKKLHRKCAYQILVQVKEVLSKLSTLVETTLKETEKITVCGDTHGQFYDLLNIFELNGLPSETNPYIFNGDFVDRGSFSVEVILTLFGFKLLYPDHFHLLRGNHETDNMNQIYGFEGEVKAKYTAQMYELFSEVFEWLPLAQCINGKVLIMHGGLFSEDGVTLDDIRKIERNRQPPDSGPMCDLLWSDPQPQNGRSISKRGVSCQFGPDVTKAFLEENNLDYIIRSHEVKAEGYEVAHGGRCVTVFSAPNYCDQMGNKASYIHLQGSDLRPQFHQFTAVPHPNVKPMAYANTLLQLGMM | binds
origin recognition complex subunit 2, endogenous (protein, UniProt Q13416 1-577) MSKPELKEDKMLEVHFVGDDDVLNHILDREGGAKLKKERAQLLVNPKKIIKKPEYDLEEDDQEVLKDQNYVEIMGRDVQESLKNGSATGGGNKVYSFQNRKHSEKMAKLASELAKTPQKSVSFSLKNDPEITINVPQSSKGHSASDKVQPKNNDKSEFLSTAPRSLRKRLIVPRSHSDSESEYSASNSEDDEGVAQEHEEDTNAVIFSQKIQAQNRVVSAPVGKETPSKRMKRDKTSDLVEEYFEAHSSSKVLTSDRTLQKLKRAKLDQQTLRNLLSKVSPSFSAELKQLNQQYEKLFHKWMLQLHLGFNIVLYGLGSKRDLLERFRTTMLQDSIHVVINGFFPGISVKSVLNSITEEVLDHMGTFRSILDQLDWIVNKFKEDSSLELFLLIHNLDSQMLRGEKSQQIIGQLSSLHNIYLIASIDHLNAPLMWDHAKQSLFNWLWYETTTYSPYTEETSYENSLLVKQSGSLPLSSLTHVLRSLTPNARGIFRLLIKYQLDNQDNPSYIGLSFQDFYQQCREAFLVNSDLTLRAQLTEFRDHKLIRTKKGTDGVEYLLIPVDNGTLTDFLEKEEEEA | binds
